# Experimental data: PubChem BioAssay AID2551 (National Center for Advancing Translational Sciences (NCATS), 2010)
# Protein sequences, listed by entry. Tags and fused reporters are not part of them. Lines headed by an entry give the natural chain unless they say otherwise; changes in a name come on top.
# UniProt P51450: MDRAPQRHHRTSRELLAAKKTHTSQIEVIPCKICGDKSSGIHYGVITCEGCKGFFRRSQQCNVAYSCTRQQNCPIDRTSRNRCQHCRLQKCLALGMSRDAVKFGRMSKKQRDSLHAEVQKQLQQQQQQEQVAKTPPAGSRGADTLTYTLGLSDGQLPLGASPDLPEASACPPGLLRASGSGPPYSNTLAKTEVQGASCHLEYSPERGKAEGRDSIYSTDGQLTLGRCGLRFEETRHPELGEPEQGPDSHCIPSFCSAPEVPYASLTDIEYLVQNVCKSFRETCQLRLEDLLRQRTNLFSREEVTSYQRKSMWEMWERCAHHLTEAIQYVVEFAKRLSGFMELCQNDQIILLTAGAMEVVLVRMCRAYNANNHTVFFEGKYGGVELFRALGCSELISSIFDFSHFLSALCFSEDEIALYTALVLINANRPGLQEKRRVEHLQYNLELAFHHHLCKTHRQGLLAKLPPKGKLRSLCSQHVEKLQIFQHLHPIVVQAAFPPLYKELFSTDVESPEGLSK
# The campaign covered roughly 310,000 compounds. About 17,000 (5.5%) were called active. The inconclusive results got no clear call from the source; some entries with a clear call stand among them for comparison. Calls follow the shape of the dose curve; as a rule, active = well fitted inhibition curve with a large enough effect; inconclusive = small, poorly fitted or top-dose-only effect, or effect the other way; inactive = no such curve, though single readings can be large or run the other way. A potency beside an inconclusive call is a rough fit, not a confirmed value.
# Molecular target: Nuclear receptor ROR-gamma (Mus musculus) (UniProt P51450)
# Assay: qHTS for inhibitors of ROR gamma transcriptional activity; also: nearly all actives have a fitted effect of over 60% in size
# Conditions: Drosophila S2 Gal4-RORgamma UAS-luciferase reporter, 20 h; activity change, negative = inhibition: at 53.6 µM (top of the series)
# Procedure, shortened: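 A Gal4/UAS one-hybrid system in insect cells: metallothionein-promoter Gal4–ROR gamma fusion plus Photinus luciferase reporter. Copper sulfate 700 uM final, 20 hr ambient incubation, luminescent detection after 10 min with reagent.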
# % is scaled to controls: 0 for no effect and ±100 for the full control effect; potency is read from the fitted curve at half-maximal effect.
Compound,Potency,"activity change, negative = inhibition"
CN(C)S(=O)(=O)N1CCC(Oc2cccc(C(=O)NCCC3=CCCCC3)c2)CC1,"inconclusive: 35.5 µM [activator, single point]",
Cc1cc(-n2nc3ccccc3n2)c(O)c([N+](=O)[O-])c1,"inconclusive: 35.5 µM [inhibitor, single point]",
Cn1c(=O)c2c(nc(SCCN3CCOCC3)n2Cc2ccccc2)n(C)c1=O,"inconclusive: 2.51 µM [activator, partial curve]",
CCc1sc(NC(=O)C(C)C)nc1-c1ccccc1,"inconclusive: 0.631 µM [activator, full curve, poor fit]",
CCCCc1ncc(CN2CCC(CC3CCCCO3)(C(=O)OCC)CC2)[nH]1 (stereo unspecified),,inactive: 5.9%
O=C(NC(=S)NCc1ccc2c(c1)OCO2)c1ccccc1,active: 20 µM,
COCCN(Cc1cc2cc3c(cc2nc1Cl)OCO3)C(=O)c1ccc(C)cc1,active: 1.58 µM,
CCCn1c(N)c(C(=O)CSc2nnc(Cc3ccccc3)o2)c(=O)n(C)c1=O,"inconclusive: 12.6 µM [activator, partial curve]",
NNc1nnc2c3cc(F)ccc3n(CCc3ccccc3)c2n1,"inconclusive: 35.5 µM [inhibitor, single point]",
CNC(=S)N1N=C2c3ccccc3CCC2C1c1ccccc1Cl (stereo unspecified),"inconclusive: 6.31 µM [inhibitor, single point]",
S=c1[nH]ncn2c1cc1oc3ccccc3c12,active: 2.51 µM,
COCCNC(=O)/C(C#N)=C/c1ccc(OCc2ccccc2)cc1,"inconclusive: 11.2 µM [inhibitor, partial curve]",
Cc1cc(C)cc(C(=O)NC(=S)Nc2ccc(-c3cc4ccccc4oc3=O)cc2)c1,"inconclusive: 2.24 µM [inhibitor, full curve]",
CCOC(=O)CCCc1ccc(/C(C)=N/NC(=S)NC)cc1,"inconclusive: 7.94 µM [inhibitor, partial curve]",
O=C(NC(=S)NCCCN1CCOCC1)c1ccc(Br)cc1,"inconclusive: 3.98 µM [inhibitor, partial curve, poor fit]",
Cc1ccccc1OCC(=O)N/N=C/c1cccc2cccnc12,active: 11.2 µM,
COc1ccc(C(=O)NC(=S)Nc2ccc3oc(=O)ccc3c2)cc1,,inactive: -13.9%
O=C(CCN1C(=O)/C(=C/c2cccs2)SC1=S)N1CCCCC1,active: 11.2 µM,
COc1cc(/C=C/C(=O)Nc2ccncc2)cc(OC)c1OC,"inconclusive: 11.2 µM [activator, single point]",
COc1cccc(Nc2ccccc2C(=O)O)c1,,inactive: 32.5%
CCCCC(=O)N=c1sc2cc(S(C)(=O)=O)ccc2n1C,"inconclusive: 7.08 µM [activator, full curve, poor fit]",
CCNC(=S)N(CCc1c(C)[nH]c2ccc(C)cc12)Cc1ccco1,active: 11.2 µM,
Cc1ccccc1C(=O)NN1C(=O)CSC1=S,"inconclusive: 35.5 µM [inhibitor, single point]",
Nc1nc(Nc2cccc(Cl)c2)nc(NCc2ccco2)c1[N+](=O)[O-],"inconclusive: 10 µM [activator, partial curve]",

Compound,Potency,"activity change, negative = inhibition"
Cn1c(=O)c2c(nc(NNC(=O)C(F)(F)F)n2C)n(C)c1=O,,inactive: -9.66%
Oc1csc(Cc2nc(-c3ccc(Br)cc3)cs2)n1,"inconclusive: 35.5 µM [inhibitor, single point]",
O=C(NCc1cccc(F)c1)c1noc2c1CCCC2,"inconclusive: 31.6 µM [activator, single point]",
Cc1cc(N2CCCC(C(=O)Nc3ccc4c(c3)CCC4)C2)n2ncnc2n1 (stereo unspecified),"inconclusive: 12.6 µM [activator, single point]",
COc1ccc(C(=O)/C=C/c2cn(CC(O)CN3CCN(C)CC3)c3ccccc23)cc1OC (stereo unspecified),,inactive: 26.7%
N/C(=N\OC(=O)CCCCCN1C(=O)c2ccccc2C1=O)c1ccccc1,"inconclusive: 20 µM [activator, single point]",
CC1CCC2C(=O)N3C(CCC(C)[C@@H]3c3cccc(N4CCOCC4)c3)C(=O)N2C1c1cccc(Br)c1 (stereo partly specified),,inactive: -2.32% [at 10 µM]
CSc1ccccc1OCc1cc(C(=O)N2CCNC(=O)C2)no1,,inactive: 18.7%
Cc1ccnc(NS(=O)(=O)c2ccc3c(c2)CCO3)c1,"inconclusive: 35.5 µM [activator, single point]",
CCc1ccc(OCC(=O)NNC(=O)c2cnccn2)c(Br)c1,"inconclusive: 3.98 µM [inhibitor, single point]",
COC(=O)c1ccc(C(=O)N(CCN(C)C)c2nc3c(Cl)cccc3s2)cc1,,inactive: -0.917%
CC/C(=N\NC(=O)c1ccccc1Cl)c1ccc(Br)s1,active: 11.2 µM,
C=CCNc1nc(N2CCCCC2)c(C#N)c2c1CN(Cc1ccccc1)CC2,"inconclusive: 5.62 µM [inhibitor, single point]",
CCOC(=O)c1c(-c2ccccc2)oc2ccc(OCC(=O)O)cc12,,inactive: 0.713%
Cc1[nH]c2ccccc2c1C(=O)C(=O)Nc1ccc2c(c1)OCCO2,"inconclusive: 10 µM [activator, partial curve]",
Cc1cc2c(c(=O)n1Cc1cccnc1)C(Cc1ccccc1)C(C#N)=C(N)O2 (stereo unspecified),"inconclusive: 35.5 µM [inhibitor, single point]",
CC1CC(C)CN(S(=O)(=O)c2ccc(C(=O)Nc3nnc(-c4cccs4)o3)cc2)C1 (stereo unspecified),active: 0.251 µM,
CCn1c(=O)c2cc(C(=O)N(C)CC(OC)OC)sc2c2ccccc21,,inactive: 22.8%
COc1cc(C(=O)NNC(=S)NCc2ccco2)cc(OC)c1OC,"inconclusive: 6.31 µM [inhibitor, full curve, poor fit]",
Cc1ccccc1NCc1ccc([N+](=O)[O-])s1,"inconclusive: 20 µM [activator, single point]",
Cc1ccc(NC(=O)c2cccc(NC(=O)/C=C/c3ccco3)c2)cc1C,,inactive: 32.4%
O=C(NCc1ccccc1Cl)c1ccccc1CCc1ccccc1,,inactive: 41.4%
COc1cccc(C(=O)Nc2cccc(NC(=O)c3ccccc3Cl)c2)c1,"inconclusive: 10 µM [activator, partial curve]",
CC(Nc1ncnc2ccccc12)c1ccccc1 (stereo unspecified),"inconclusive: 0.501 µM [activator, single point]",

# Individual results from the list:
# Under Potency, C=CCNc1nc(N2CCCCC2)c(C#N)c2c1CN(Cc1ccccc1)CC2 is entered as inconclusive: 5.62 µM [inhibitor, single point]
# Under Potency, Cc1ccccc1NCc1ccc([N+](=O)[O-])s1 is entered as inconclusive: 20 µM [activator, single point]
# Under Potency, CCc1ccc(OCC(=O)NNC(=O)c2cnccn2)c(Br)c1 is entered as inconclusive: 3.98 µM [inhibitor, single point]
# Under Potency, CC(Nc1ncnc2ccccc12)c1ccccc1 (stereo unspecified) is entered as inconclusive: 0.501 µM [activator, single point]
# Under Potency, O=C(NCc1cccc(F)c1)c1noc2c1CCCC2 is entered as inconclusive: 31.6 µM [activator, single point]
# Under Potency, Cc1ccnc(NS(=O)(=O)c2ccc3c(c2)CCO3)c1 is entered as inconclusive: 35.5 µM [activator, single point]

# The results go on.

Compound,Potency,"activity change, negative = inhibition"
CCCCCc1cc(=O)oc2c(C(CCN3CCCCC3)c3cc(OC)c(OC)c(OC)c3)c(OC)cc(OC)c12 (stereo unspecified),"inconclusive: 22.4 µM [inhibitor, single point]",
CCC(=O)Nc1ccc2oc(-c3cccc(C)c3)nc2c1,active: 0.794 µM,
CSCCC(NC(=O)CCN1C(=O)c2ccccc2C1=O)C(=O)O (stereo unspecified),"inconclusive: 35.5 µM [activator, single point]",
Cc1ccc(NC2CCCN(C(=O)C3CCCC3)C2)cc1C (stereo unspecified),"inconclusive: 35.5 µM [activator, single point]",
CCOC(=O)c1c(OCC)[nH]c2c1cc(O)c1ccccc12,"inconclusive: 35.5 µM [inhibitor, single point]",
CSCc1cc(N2CCOCC2)nc(SCc2ccc(Cl)cc2Cl)n1,"inconclusive: 12.6 µM [inhibitor, single point]",
CN1CCN(CCC(=O)N2c3ccccc3Sc3ccc(Cl)cc32)CC1,"inconclusive: 22.4 µM [inhibitor, single point]",
COc1ccccc1OCC(=O)NNC(=O)C(=O)N1CCCC1,"inconclusive: 35.5 µM [inhibitor, single point]",
Cc1ccc(NC(=O)c2cc(S(=O)(=O)NCCC3=CCCCC3)ccc2F)cc1F,"inconclusive: 15.8 µM [activator, single point]",
Cc1ccc(NC(=S)Nc2cccc3ccccc23)cc1F,active: 11.2 µM,
CCCCSCCCNC(=O)c1ccc2c(c1)N(CC)C(=O)c1ccccc1S2=O (stereo unspecified),"inconclusive: 15.8 µM [activator, single point]",
Cc1[nH]c2ccccc2c1C(=O)C(=O)N1c2ccccc2CC1C (stereo unspecified),"inconclusive: 14.1 µM [activator, partial curve]",
CC(C)CCNC(=O)c1ccc(Cl)c(NC(=O)Cc2ccccc2)c1,"inconclusive: 12.6 µM [activator, single point]",
CCCS(=O)(=O)n1nc(-c2ccc(Br)cc2)cc1N,"inconclusive: 0.631 µM [activator, full curve]",
O=C1CCCC/C1=N\Nc1ccc(OCc2ccccc2)cc1,"inconclusive: 0.501 µM [activator, full curve]",
COc1ccc(NC(=O)N2CCCCC2)cc1,"inconclusive: 14.1 µM [activator, single point]",
Cc1ccc(Cl)cc1N1CCN(C(=O)C2CCN(S(=O)(=O)c3c(C)nn(C)c3C)CC2)CC1,"inconclusive: 15.8 µM [activator, single point]",
Cc1cc(Nc2nc3ccccc3nc2Cl)n(-c2ccccc2C)n1,"inconclusive: 11.2 µM [inhibitor, partial curve]",
O=C(NCCSCc1ccc(Cl)cc1)c1cccs1,"inconclusive: 12.6 µM [activator, single point]",
CCn1c(=O)c(CCC(=O)NCC2CCCO2)c(C)c2c(C)nn(-c3ccccc3)c21 (stereo unspecified),,inactive: 18%
CC(C)(C)c1ccc(C(=O)c2c[nH]c(C(=O)NCC3CCCO3)c2)cc1 (stereo unspecified),"inconclusive: 3.16 µM [activator, partial curve]",
CCCSc1nnc(-c2c[nH]c3ccccc23)n1C,"inconclusive: 2.82 µM [activator, full curve]",
Cc1cccc(N2CCN(C(=O)CCN3C(=S)NC(C)(C)CC3C)CC2)c1C (stereo unspecified),active: 4.47 µM,
